The numbers were not newly measured in patent publication US20240122878A1 (priority 2021, published 2024), which cites them from elsewhere.

This series concerns the target N-methyl-D-aspartate receptors (NMDARs), MK-801 site. The settings on record: cited from earlier work.

With `CCC(=O)C(C[C@H](C)N(C)C)(c1ccccc1)c1ccccc1` [esmethadone], the “IC50 at MK-801 site of NMDAR” value is reported as “low-micromolar”.
